Values from PubChem BioAssay AID1159578 (Peter MacCallum Cancer Centre, 2015)
Assay: 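Genome-wide hunt for genes controlling movement of lymphatic endothelial cells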 (primary screen). System: human lymphatic endothelial cells. Knock-down reagent: siRNA pool against human genes, 40 nM. Timing: 48 h after transfection. Detection: 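High-content imaging of dye-stained cells in a scratch assay measures filled wound area and nuclei per well; duplicate means given as ratio to mock and robust z-score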. Direction: migration robust z-score: higher = faster migration into the scratch; migration relative to mock: higher = more scratch area covered than mock; nuclei per well: higher = more cells in the well. Rule for the call: 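Migration changed when robust z exceeds 2 or falls below -2 and mean nuclei number is at least 3300; otherwise not called changed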. Meaning of the calls: active = migration changed; inactive = no migration change, or too few cells.
Shown is one part, drawn at random, of about 18,000 reagents tested. About 1,030 of them (5.7%) were called active. 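Inactive calls also include pools with fewer than 3300 nuclei, whose migration was not assessed.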 Raw values are not corrected between plates. A number with no mark means an inactive call. No sequences are given here.

The opening 7 entries, ahead of the listing:
target gene	migration robust z-score	migration class with cell-count check	migration relative to mock	nuclei per well, duplicate mean
SLC25A34	-2.38 (active)	migration z below -2; enough cells	0.27	4254
ZZEF1 (zinc finger ZZ-type and EF-hand domain containing 1)	0.4	migration z between -2 and 2; enough cells	0.99	5088
FAM32A (family with sequence similarity 32 member A)	0.36	migration z between -2 and 2; enough cells	0.98	5689
TESMIN (testis expressed metallothionein like protein)	0.57	migration z between -2 and 2; enough cells	1.04	6062
CXCL9 (C-X-C motif chemokine ligand 9)	0.71	migration z between -2 and 2; enough cells	1.07	5832
CHSY1 (chondroitin sulfate synthase 1)	-2.03 (active)	migration z below -2; enough cells	0.42	4393
PPP3R1 (protein phosphatase 3 regulatory subunit B, alpha)	0.42	migration z between -2 and 2; enough cells	0.88	5470

The listing, from the first entry:
target gene	migration robust z-score	migration class with cell-count check	migration relative to mock	nuclei per well, duplicate mean
SLC25A34	-2.38 (active)	migration z below -2; enough cells	0.27	4254
ZZEF1 (zinc finger ZZ-type and EF-hand domain containing 1)	0.4	migration z between -2 and 2; enough cells	0.99	5088
FAM32A (family with sequence similarity 32 member A)	0.36	migration z between -2 and 2; enough cells	0.98	5689
TESMIN (testis expressed metallothionein like protein)	0.57	migration z between -2 and 2; enough cells	1.04	6062
CXCL9 (C-X-C motif chemokine ligand 9)	0.71	migration z between -2 and 2; enough cells	1.07	5832
CHSY1 (chondroitin sulfate synthase 1)	-2.03 (active)	migration z below -2; enough cells	0.42	4393
PPP3R1 (protein phosphatase 3 regulatory subunit B, alpha)	0.42	migration z between -2 and 2; enough cells	0.88	5470
RBM17 (RNA binding motif protein 17)	0.1	migration z between -2 and 2; enough cells	0.92	5920
KLHL12 (kelch like family member 12)	0.16	migration z between -2 and 2; enough cells	0.92	4386
KAZN (kazrin, periplakin interacting protein)	-0.66	migration z between -2 and 2; enough cells	0.72	5912
CRH (corticotropin releasing hormone)	-0.26	migration z between -2 and 2; enough cells	0.76	4510
ATP11B (ATPase phospholipid transporting 11B (putative))	0.24	migration z between -2 and 2; enough cells	0.85	5720
GPHA2 (glycoprotein hormone subunit alpha 2)	0.54	migration z between -2 and 2; enough cells	1.02	6542
IMMP1L (inner mitochondrial membrane peptidase subunit 1)	-1.48	migration z between -2 and 2; enough cells	0.52	5243
TSSK3 (testis specific serine kinase 3)	-2.26 (active)	migration z below -2; enough cells	0.37	4278
POU3F3 (POU class 3 homeobox 3)	-0.24	migration z between -2 and 2; enough cells	0.82	6578
AASDHPPT	-1.17	migration z between -2 and 2; enough cells	0.58	5363
OXTR (oxytocin receptor)	1.19	migration z between -2 and 2; enough cells	1.04	5732
ZNF628 (zinc finger protein 628)	-0.08	migration z between -2 and 2; enough cells	0.86	5624
TTC39A (tetratricopeptide repeat domain 39A)	-0.16	migration z between -2 and 2; enough cells	0.84	7439
RPP14 (ribonuclease P/MRP subunit p14)	0.02	migration z between -2 and 2; enough cells	0.81	5900
SERPINE2 (serpin family E member 2)	2.04 (active)	migration z above 2; enough cells	1.42	5178
TRPM2	-0.1	under 3300 nuclei; migration not judged	0.78	2856
SHMT2 (serine hydroxymethyltransferase 2)	-0.93	migration z between -2 and 2; enough cells	0.62	5118
ADGRF3 (adhesion G protein-coupled receptor F3)	0.54	migration z between -2 and 2; enough cells	0.91	5588
KPNA3 (karyopherin subunit alpha 3)	-0.39	migration z between -2 and 2; enough cells	0.73	4696
PRSS21 (serine protease 21)	-0.08	migration z between -2 and 2; enough cells	0.79	5142
PTPRC (protein tyrosine phosphatase receptor type C)	-0.08	migration z between -2 and 2; enough cells	0.79	5554
ECEL1 (endothelin converting enzyme like 1)	0.52	migration z between -2 and 2; enough cells	0.9	5400
ALPI (alkaline phosphatase, intestinal)	-0.52	migration z between -2 and 2; enough cells	0.7	4145
SETX (senataxin)	0.38	migration z between -2 and 2; enough cells	0.98	6132
SFT2D1 (SFT2 domain containing 1)	0.8	migration z between -2 and 2; enough cells	1.08	5280
TRIM49 (tripartite motif containing 49)	0.21	migration z between -2 and 2; enough cells	0.84	5454
MAIP1 (matrix AAA peptidase interacting protein 1)	-1.67	migration z between -2 and 2; enough cells	0.44	3458
RNF40 (ring finger protein 40)	-1.24	migration z between -2 and 2; enough cells	0.56	4116
CXCL5 (C-X-C motif chemokine ligand 5)	-0.34	migration z between -2 and 2; enough cells	0.8	6246
RPL8 (ribosomal protein L8)	-0.52	migration z between -2 and 2; enough cells	0.75	3770
UBAC2 (UBA domain containing 2)	1.88	migration z between -2 and 2; enough cells	1.38	5655
MBD3L2 (methyl-CpG binding domain protein 3 like 2)	0.27	migration z between -2 and 2; enough cells	0.96	6084
CCKBR (cholecystokinin B receptor)	0.42	migration z between -2 and 2; enough cells	0.88	6003
ITGA2 (integrin subunit alpha 2)	-0.94	migration z between -2 and 2; enough cells	0.62	4772
ZNF689 (zinc finger protein 689)	-0.16	migration z between -2 and 2; enough cells	0.84	3922
HECA (HECA ribonucleoprotein granule regulator)	0.32	migration z between -2 and 2; enough cells	0.97	7178
DRC7 (dynein regulatory complex subunit 7)	-1.4	migration z between -2 and 2; enough cells	0.52	6460
LY6G6C (lymphocyte antigen 6 family member G6C)	0.8	migration z between -2 and 2; enough cells	1.08	5074
SFTPC (surfactant protein C)	1.16	migration z between -2 and 2; enough cells	1.19	6992
OSGIN2 (oxidative stress induced growth inhibitor family member 2)	1.04	migration z between -2 and 2; enough cells	1.16	5266
DDX17 (DEAD-box helicase 17)	0.98	migration z between -2 and 2; enough cells	1	5676
LINC00173 (long independently transcribed non-coding RNA 173)	-2.44 (active)	migration z below -2; enough cells	0.25	4348
ZDHHC22 (zDHHC palmitoyltransferase 22)	-0.04	migration z between -2 and 2; enough cells	0.87	5125
TRAPPC2 (trafficking protein particle complex subunit 2)	-0.24	migration z between -2 and 2; enough cells	0.82	7462
RAN (RAN, member RAS oncogene family)	0.21	migration z between -2 and 2; enough cells	0.84	4958
PZP (PZP alpha-2-macroglobulin like)	-0.85	migration z between -2 and 2; enough cells	0.66	5102
KDM2A (lysine demethylase 2A)	-0.68	migration z between -2 and 2; enough cells	0.68	5018
INPP1 (inositol polyphosphate-1-phosphatase)	0.24	migration z between -2 and 2; enough cells	0.85	5619
SPPL2C (signal peptide peptidase like 2C)	-0.05	migration z between -2 and 2; enough cells	0.8	5248
APMAP (adipocyte plasma membrane associated protein)	1.06	migration z between -2 and 2; enough cells	1.16	5484
